Measured values as given in publication PMC8329225.
No constants are given. Whether binding was seen depends on the method and setting. In cells and extracts the contact can be indirect.

Sequences of proteins named here, by UniProt entry; tags and fusion partners are left off.
UniProt Q96P20: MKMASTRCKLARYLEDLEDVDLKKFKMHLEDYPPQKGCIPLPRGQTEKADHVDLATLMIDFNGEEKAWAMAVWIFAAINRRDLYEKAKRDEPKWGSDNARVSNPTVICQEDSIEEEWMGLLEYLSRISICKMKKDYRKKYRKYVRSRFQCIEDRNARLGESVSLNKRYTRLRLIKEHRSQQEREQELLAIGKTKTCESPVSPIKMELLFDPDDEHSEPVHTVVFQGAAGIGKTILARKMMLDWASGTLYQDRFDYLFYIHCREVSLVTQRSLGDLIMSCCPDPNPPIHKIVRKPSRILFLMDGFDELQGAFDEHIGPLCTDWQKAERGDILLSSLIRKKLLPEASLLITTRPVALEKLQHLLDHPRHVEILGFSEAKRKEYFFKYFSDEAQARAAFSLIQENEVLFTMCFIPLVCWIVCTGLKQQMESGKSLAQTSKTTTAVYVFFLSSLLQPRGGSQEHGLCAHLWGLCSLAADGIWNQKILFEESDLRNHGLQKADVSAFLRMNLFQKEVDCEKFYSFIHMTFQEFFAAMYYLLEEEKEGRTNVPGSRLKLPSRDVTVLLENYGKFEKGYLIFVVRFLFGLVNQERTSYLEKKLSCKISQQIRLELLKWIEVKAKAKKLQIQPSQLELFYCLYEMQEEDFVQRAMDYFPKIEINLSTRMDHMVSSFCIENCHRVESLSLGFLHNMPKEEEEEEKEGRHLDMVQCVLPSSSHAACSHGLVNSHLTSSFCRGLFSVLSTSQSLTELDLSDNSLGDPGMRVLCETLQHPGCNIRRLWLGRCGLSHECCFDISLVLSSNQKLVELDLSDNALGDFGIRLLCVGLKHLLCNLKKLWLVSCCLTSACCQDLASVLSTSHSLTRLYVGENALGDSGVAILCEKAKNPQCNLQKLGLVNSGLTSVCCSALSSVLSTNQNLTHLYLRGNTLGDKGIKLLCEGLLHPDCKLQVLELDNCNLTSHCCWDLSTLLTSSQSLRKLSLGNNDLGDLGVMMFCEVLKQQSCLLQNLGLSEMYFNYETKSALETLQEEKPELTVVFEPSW
UniProt P0DTC3: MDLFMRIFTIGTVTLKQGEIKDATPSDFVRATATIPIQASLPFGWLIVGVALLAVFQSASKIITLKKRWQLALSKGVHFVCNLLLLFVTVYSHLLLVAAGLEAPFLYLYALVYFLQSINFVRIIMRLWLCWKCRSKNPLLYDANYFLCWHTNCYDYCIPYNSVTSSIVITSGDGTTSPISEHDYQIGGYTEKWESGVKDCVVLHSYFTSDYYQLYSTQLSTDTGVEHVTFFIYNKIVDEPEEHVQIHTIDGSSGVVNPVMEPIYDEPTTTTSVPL

Biological target: NLRP3 protein (construct of Supplementary Fig. 4 and 5a, tag not shown) (UniProt Q96P20)
Assay: co-IP

Question: With “SARS-CoV-2 3a protein (from UniProt P0DTC3 1-275)” as the substance, how does the binding read?
Answer: Its binding is “no binding”.
